No constants are given. Whether binding was seen depends on the method and setting. Some results given as binding are weak or reduced against the parent protein; the word gives no strength.
Target: T1, yeast Smc2 residues 396-792 (yeast) (UniProt P38989)
T1 sequence: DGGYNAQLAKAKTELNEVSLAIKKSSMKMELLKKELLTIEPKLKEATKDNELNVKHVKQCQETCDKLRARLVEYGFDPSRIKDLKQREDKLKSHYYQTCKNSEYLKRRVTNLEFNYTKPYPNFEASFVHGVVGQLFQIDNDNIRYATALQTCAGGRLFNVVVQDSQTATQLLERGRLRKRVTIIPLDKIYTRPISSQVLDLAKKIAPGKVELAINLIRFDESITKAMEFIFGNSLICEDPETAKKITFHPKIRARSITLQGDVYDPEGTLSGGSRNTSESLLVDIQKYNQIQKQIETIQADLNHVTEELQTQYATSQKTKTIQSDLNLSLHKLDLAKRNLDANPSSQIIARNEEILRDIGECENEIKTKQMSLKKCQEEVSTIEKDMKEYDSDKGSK
Experiment: co-purification (Ni affinity, anion exchange, SEC); His6-tagged Smc2 (396-792) and untagged Smc4 (555-951) co-expressed in bacteria and purified together by Ni-Sepharose 6FF, Resource Q and Superdex 200 GL 10/300

binding: binds
B1: yeast Smc4 residues 555-951 (domain or fragment, UniProt Q12267 555-951)
chain: EKELEPWDLQLQEKESQIQLAESELSLLEETQAKLKKNVETLEEKILAKKTHKQELQDLILDLKKKLNSLKDERSQGEKNFTSAHLKLKEMQKVLNAHRQRAMEARSSLSKAQNKSKVLTALSRLQKSGRINGFHGRLGDLGVIDDSFDVAISTACPRLDDVVVDTVECAQHCIDYLRKNKLGYARFILLDRLRQFNLQPISTPENVPRLFDLVKPKNPKFSNAFYSVLRDTLVAQNLKQANNVAYGKKRFRVVTVDGKLIDISGTMSGGGNHVAKGLMKLGTNQSDKVDDYTPEEVDKIERELSERENNFRVASDTVHEMEEELKKLRDHEPDLESQISKAEMEADSLASELTLAEQQVKEAEMAYVKAVSDKAQLNVVMKNLERLRGEYNDLQSE

— article PMC12865461
